# Source: PubChem BioAssay
# Some of the results follow. These are further read-outs of the screen, such as a control signal, another cell line or another target. No call is given for them. For part of these data: Most of these compounds were active or inconclusive in the main read-out, so they are no random draw. Square brackets hold non-standard residues; d marks the D form. Side chains are listed from the residue outwards. Peptide text beside a SMILES is read from it. * marks the point of attachment. X1 = CCC(C)C(N)C1=NC(C(=O)*)CS1; Orn = NCCC[CH](N)C(=O)O
# Assay: selective SMN2 exon splicing luciferase activators – cell-based, SMN2/SMN1 luciferase reporters (AID 1598)
# Conditions: SMN2 vs SMN1 luciferase splicing reporter cells, at 10 µM; SMN1 luciferase ratio: measured here: SMN1 luciferase reporter average; SMN2 luciferase ratio: measured here: SMN2 luciferase reporter average, stronger effect = higher value
SMILES,SMN1 luciferase ratio,SMN2 luciferase ratio
C[C@H](CCC(=O)O)[C@H]1CCC2C3C(=O)CC4CC(=O)CC[C@]4(C)C3CC(=O)[C@@]21C (stereo partly drawn),0.9,0.81
O=C(O)CN(CCN(CC(=O)O)CC(=O)O)CC(=O)O,0.87,0.9
CCn1cc(C(=O)O)c(=O)c2ccc(C)nc21,0.82,0.96
CC1(C)S[C@@H]2[C@H](NC(=O)[C@@H](N)c3ccc(O)cc3)C(=O)N2[C@H]1C(=O)O,0.81,0.75
CCOC(=O)[C@H](CCc1ccccc1)N[C@@H](C)C(=O)N1CCC[C@H]1C(=O)O,0.8,0.85
NS(=O)(=O)c1cc2c(cc1C(F)(F)F)NCNS2(=O)=O,0.86,0.79
CN1Cc2c(N)cccc2C(c2ccccc2)C1 (stereo not drawn),0.87,0.95
CNC[C@@H](O)c1ccc(O)c(O)c1,0.93,0.87
C[C@@H]1CC2C3C[C@H](F)C4=CC(=O)C=CC4(C)C3(F)[C@@H](O)CC2(C)C1C(=O)COC(=O)C(C)(C)C (stereo partly drawn),0.94,1.01
CN=C(NC#N)NCCSCc1nc[nH]c1C,0.87,0.88
Cc1cc(O)cc(C)c1Cl,0.94,0.88
COc1ccc(-c2cc(=O)c3c(O)cc(O)cc3o2)cc1,1.21,1.08
NCCCC(=O)O,0.92,1.02
C1CCC(C(CC2CCCCN2)C2CCCCC2)CC1 (stereo not drawn),0.91,0.81
Cc1ccc(C(=O)C(C)CN2CCCCC2)cc1 (stereo not drawn),0.96,0.92
CN(C)CCCN1c2ccccc2Sc2ccccc21,0.81,0.85
NCCCCNCCCN,0.78,0.9
COc1ccc(C[C@H](N)C(=O)N[C@@H]2[C@@H](CO)OC(n3cnc4c(N(C)C)ncnc43)[C@@H]2O)cc1 (stereo partly drawn),0.09,0.13
CC(=O)O[C@H]1C[C@@]2(C)[C@@H](C[C@@H](O)C3[C@]2(C)CC[C@H]2[C@H](C)[C@H](O)CC[C@]32C)/C1=C(/CCC=C(C)C)C(=O)O (stereo partly drawn),0.82,0.93
CC(C)C(=O)Nc1ccc([N+](=O)[O-])c(C(F)(F)F)c1,0.68,0.69

# In another format: entries from further up
SMILES	SMN1 luciferase ratio	SMN2 luciferase ratio
C[C@H](CCC(=O)O)[C@H]1CCC2C3C(=O)CC4CC(=O)CC[C@]4(C)C3CC(=O)[C@@]21C (stereo partly drawn)	0.9	0.81
O=C(O)CN(CCN(CC(=O)O)CC(=O)O)CC(=O)O	0.87	0.9
CCn1cc(C(=O)O)c(=O)c2ccc(C)nc21	0.82	0.96

# (further entries)

SMILES,SMN1 luciferase ratio,SMN2 luciferase ratio
Cc1ccc(C)c(OCCCC(C)(C)C(=O)O)c1,0.95,1.01
CCOC(=O)N1CCC(=C2c3ccc(Cl)cc3CCc3cccnc32)CC1,0.82,0.77
O=c1cc(-c2ccc(O)cc2)oc2cc(O)cc(O)c12,1.5,1.45
CCCCCC(C)N (stereo not drawn),0.81,0.88
CN1CCC(=C2c3ccccc3Sc3ccccc32)CC1,0.75,0.81
O=C1N=C(O)CN1/N=C/c1ccc(-c2ccc([N+](=O)[O-])cc2)o1,0.92,1.02
CC(=O)NCCc1c[nH]c2ccc(O)cc12,0.94,0.86
OC(CCN1CCCCC1)(c1ccccc1)C1CCCCC1 (stereo not drawn),0.91,0.9
CCN(CC)CC(=O)Nc1c(C)cccc1C,0.87,0.88
CC(=O)N1CCN(c2ccc(OCC3CO[C@](Cn4ccnc4)(c4ccc(Cl)cc4Cl)O3)cc2)CC1 (stereo partly drawn),1,0.93
CC1=C(CC(=O)O)c2cc(F)ccc2/C1=C\c1ccc(S(C)=O)cc1 (stereo not drawn),0.95,0.91
COc1ccc(-c2coc3cc(O)cc(O)c3c2=O)cc1,1.48,1.67
CCCC(=O)Nc1ncnc2c1ncn2C1O[C@@H]2COP(=O)(O)O[C@H]2[C@H]1OC(=O)CCC (stereo partly drawn),1.05,0.96
CCC(C)C(N)C1=NC(C(=O)NC(CC(C)C)C(=O)NC(CCC(=O)O)C(=O)NC(C(=O)NCCCCC2NC(=O)C(CC(N)=O)NC(=O)C(CC(=O)O)NC(=O)C(Cc3cnc[nH]3)NC(=O)C(Cc3ccccc3)NC(=O)C(C(C)CC)NC(=O)C(CCCN)NC2=O)C(C)CC)CS1 (stereo not drawn) (cyclo(DNK([Ile-Glu-Leu-X1])[Orn]IFH); configuration not given here),0.84,0.83
CC(C)[C@@H]1CC[C@@H](C)C[C@H]1O,0.93,1.06
Nc1ccn(C2O[C@H](CO)[C@@H](O)[C@H]2O)c(=O)n1 (stereo partly drawn),0.94,0.98
CC(=O)OCC(=O)[C@@]1(O)[C@H](C)CC2C3CCC4=CC(=O)C=C[C@]4(C)[C@@]3(F)[C@@H](O)C[C@@]21C (stereo partly drawn),0.86,0.86
CCOc1ccc2c(c1)C(C)=CC(C)(C)N2,0.94,0.89
CC1(C)C2CC[C@]3(C)C(C(=O)C=C4[C@H]5C[C@@](C)(C(=O)O)CC[C@]5(C)CC[C@]43C)[C@@]2(C)CC[C@@H]1O (stereo partly drawn),0.97,0.98

# Assay: rescue of PC12 cells from polyQ htt toxicity – LDH release (AID 1610)
# Conditions: PC12 mutant huntingtin toxicity, final LDH at 4 uM, stronger effect = lower value
row,SMILES,normalised LDH release
1,C[C@H](CCC(=O)O)[C@H]1CCC2C3C(=O)CC4CC(=O)CC[C@]4(C)C3CC(=O)[C@@]21C (stereo partly drawn),0.933
2,O=C(O)CN(CCN(CC(=O)O)CC(=O)O)CC(=O)O,0.962
3,CCn1cc(C(=O)O)c(=O)c2ccc(C)nc21,0.944
4,CC1(C)S[C@@H]2[C@H](NC(=O)[C@@H](N)c3ccc(O)cc3)C(=O)N2[C@H]1C(=O)O,0.883
5,CCOC(=O)[C@H](CCc1ccccc1)N[C@@H](C)C(=O)N1CCC[C@H]1C(=O)O,0.791
6,NS(=O)(=O)c1cc2c(cc1C(F)(F)F)NCNS2(=O)=O,1.4
7,CN1Cc2c(N)cccc2C(c2ccccc2)C1 (stereo not drawn),0.574
8,CNC[C@@H](O)c1ccc(O)c(O)c1,0.881
9,C[C@@H]1CC2C3C[C@H](F)C4=CC(=O)C=CC4(C)C3(F)[C@@H](O)CC2(C)C1C(=O)COC(=O)C(C)(C)C (stereo partly drawn),0.709
10,CN=C(NC#N)NCCSCc1nc[nH]c1C,0.95
11,Cc1cc(O)cc(C)c1Cl,1.01
12,COc1ccc(-c2cc(=O)c3c(O)cc(O)cc3o2)cc1,0.862
13,NCCCC(=O)O,0.941
14,C1CCC(C(CC2CCCCN2)C2CCCCC2)CC1 (stereo not drawn),1.06
15,CN(C)CCCN1c2ccccc2Sc2ccccc21,0.863
16,CC(=O)O[C@H]1C[C@@]2(C)[C@@H](C[C@@H](O)C3[C@]2(C)CC[C@H]2[C@H](C)[C@H](O)CC[C@]32C)/C1=C(/CCC=C(C)C)C(=O)O (stereo partly drawn),0.873
17,Cc1ccc(C)c(OCCCC(C)(C)C(=O)O)c1,0.827
18,CCCCCC(C)N (stereo not drawn),0.912
19,CN1CCC(=C2c3ccccc3Sc3ccccc32)CC1,1.02
20,O=C1N=C(O)CN1/N=C/c1ccc(-c2ccc([N+](=O)[O-])cc2)o1,0.927
21,CC(=O)NCCc1c[nH]c2ccc(O)cc12,0.957
22,OC(CCN1CCCCC1)(c1ccccc1)C1CCCCC1 (stereo not drawn),0.569
23,CCN(CC)CC(=O)Nc1c(C)cccc1C,1.08
24,CC(=O)N1CCN(c2ccc(OCC3CO[C@](Cn4ccnc4)(c4ccc(Cl)cc4Cl)O3)cc2)CC1 (stereo partly drawn),0.819
25,CC1=C(CC(=O)O)c2cc(F)ccc2/C1=C\c1ccc(S(C)=O)cc1 (stereo not drawn),0.76
26,CCCC(=O)Nc1ncnc2c1ncn2C1O[C@@H]2COP(=O)(O)O[C@H]2[C@H]1OC(=O)CCC (stereo partly drawn),1.01
27,CCC(C)C(N)C1=NC(C(=O)NC(CC(C)C)C(=O)NC(CCC(=O)O)C(=O)NC(C(=O)NCCCCC2NC(=O)C(CC(N)=O)NC(=O)C(CC(=O)O)NC(=O)C(Cc3cnc[nH]3)NC(=O)C(Cc3ccccc3)NC(=O)C(C(C)CC)NC(=O)C(CCCN)NC2=O)C(C)CC)CS1 (stereo not drawn) (cyclo(DNK([Ile-Glu-Leu-X1])[Orn]IFH); configuration not given here),0.794
28,CC(C)[C@@H]1CC[C@@H](C)C[C@H]1O,0.688
29,Nc1ccn(C2O[C@H](CO)[C@@H](O)[C@H]2O)c(=O)n1 (stereo partly drawn),0.771
30,CC1(C)C2CC[C@]3(C)C(C(=O)C=C4[C@H]5C[C@@](C)(C(=O)O)CC[C@]5(C)CC[C@]43C)[C@@]2(C)CC[C@@H]1O (stereo partly drawn),0.743
